From paper PMC7448276
No constants are given. Whether binding was seen depends on the method and setting. In cells and extracts the contact can be indirect. A result given as binding can be weak or reduced; the word gives no strength.

Protein sequences, listed by entry. Tags and fused reporters are not part of them. Lines headed by an entry give the natural chain unless they say otherwise; changes in a name come on top.
UniProt O05574: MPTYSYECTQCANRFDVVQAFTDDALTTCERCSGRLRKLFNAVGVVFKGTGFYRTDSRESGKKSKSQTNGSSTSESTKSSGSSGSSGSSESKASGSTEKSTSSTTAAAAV
UniProt P9WMJ9: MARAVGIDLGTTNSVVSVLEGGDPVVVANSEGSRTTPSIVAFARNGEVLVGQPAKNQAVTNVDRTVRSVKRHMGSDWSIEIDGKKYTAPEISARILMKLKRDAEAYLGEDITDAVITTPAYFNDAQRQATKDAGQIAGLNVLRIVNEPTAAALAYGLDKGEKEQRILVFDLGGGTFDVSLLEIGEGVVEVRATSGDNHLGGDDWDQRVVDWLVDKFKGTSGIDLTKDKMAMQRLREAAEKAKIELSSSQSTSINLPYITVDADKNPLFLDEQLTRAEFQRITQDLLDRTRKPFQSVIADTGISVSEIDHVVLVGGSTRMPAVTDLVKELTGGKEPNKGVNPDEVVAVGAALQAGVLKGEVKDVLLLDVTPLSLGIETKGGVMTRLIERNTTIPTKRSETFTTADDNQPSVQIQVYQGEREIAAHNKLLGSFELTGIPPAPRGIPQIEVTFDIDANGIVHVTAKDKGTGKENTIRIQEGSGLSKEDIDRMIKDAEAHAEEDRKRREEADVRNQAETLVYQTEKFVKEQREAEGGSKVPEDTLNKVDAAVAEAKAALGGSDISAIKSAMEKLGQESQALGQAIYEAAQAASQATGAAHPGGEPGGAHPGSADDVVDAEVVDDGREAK

Biological target: Ruc with a C-terminal hexahistidine-FLAG tandem affinity purification tag (RucTAP) (M. tuberculosis) (UniProt O05574)
Assay: pull-down

## M. tuberculosis DnaK (from UniProt P9WMJ9 1-625)
  binding: binds
